Measurements: patent US7938981B2, “Deicing and heat transfer fluid compositions” (Bioamber S.A.S., priority 2009, dated 2011)

Tests used:
[1] = 50% (wt.) concentration in water; cited from earlier work
[2] = 50% (wt.) concentration in water, 5 day test, cited from earlier work
[3] = after 50 freeze-thaw cycles, FIG. 2
[4] = 3 wt % deicer in water, no corrosion inhibitors, FIG. 1
[5] = Concrete scaling resistance (ASTM C 672 / C 672M); conditions: from concrete scaling of Table 3

SMILES	COD [1]	BOD5 [2]	concrete erosion (scaled concrete) [3]	dichromate treated magnesium alloy corrosion [4]	more harmful on concrete relative to potassium succinate (Test No. 1) [5]	BOD5 ([2]; listed as Potassium formate)	BOD5 ([2]; listed as potassium formate)
OCCO [Ethylene Glycol]	0.65^19 g O2/g fluid	0.4^18 g O2/g fluid	–	–	–	–	–
CC(O)CO (stereo not shown) [Propylene Glycol]	0.84^19 g O2/g fluid	0.5^18 g O2/g fluid	–	–	–	–	–
O=C([O-])CCC(=O)[O-].[K+].[K+] [Test No. 1, potassium succinate]	0.25^14 g O2/g fluid	0.17^14 g O2/g fluid	negligible and comparable to that of water	substantially lower	–	–	–
CC(=O)[O-].[K+] [Test No. 2, potassium acetate]	–	–	significant	significant	5360%	–	–
O=C[O-].[K+] [Test No. 3, potassium formate]	–	–	substantial	highly susceptible to corrosion	14,840%	0.10^16 g O2/g fluid	significantly lower than that of both acetate and succinate

Where two headings read alike, the source gives them in different places.
